Among the data in paper PMC7819943, “Rice protein-binding microarrays: a tool to detect cis-acting elements near promoter regions in rice” are binding signal values, retold here.

Protein sequences, listed by entry. Tags and fused reporters are not part of them.
UniProt Q0JBA9, entry or part of it: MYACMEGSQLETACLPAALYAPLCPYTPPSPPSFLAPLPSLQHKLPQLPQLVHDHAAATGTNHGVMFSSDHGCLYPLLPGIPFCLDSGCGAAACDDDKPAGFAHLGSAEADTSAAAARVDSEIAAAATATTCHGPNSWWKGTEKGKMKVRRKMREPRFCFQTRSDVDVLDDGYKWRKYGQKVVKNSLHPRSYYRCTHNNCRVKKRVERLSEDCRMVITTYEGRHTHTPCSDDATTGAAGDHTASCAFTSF

Some of the results follow.

The target in this test is OsWRKY34 (Oryza sativa, UniProt Q0JBA9 1-250). In words: protein-binding microarray (RPBM); PBS, 2% BSA, 51.3 ng/ul salmon testes DNA, 50 uM zinc acetate, 200 nM TF, 25 C, 1 h; high values mean tight binding. The note with it: protein: recombinant; tags: N-terminal polyhistidine and DsRed monomer fusion (pET32a); label: CyDye5-dUTP incorporated in the synthesized complementary strand; 3' TTTTT single-stranded linker to array surface; dsDNA, one strand shown. The method, boiled down: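 Ni–NTA purification followed expression in E. coli BL21-CodonPlus of transcription factors fused N-terminally to a polyhistidine tag and DsRed. At 200 nM in PBS with 2% BSA, salmon testes DNA and 50 µM zinc acetate, the protein was incubated for 1 h at 25 °C with a custom Agilent array that had been primer-extended with Cy5-dUTP and blocked with 2% BSA. After washing, the array was read on an Axon 4000B scanner. The binding signal is per-feature fluorescence intensity in arbitrary units.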
In the case of “GTGCGCGCCATCATCACTATTCATCGGTTCTACATCTAGGCGGAGTCACCTAGTGCAG”, the binding signal was 9390 fluorescence intensity (a.u.).
Next, “CCCGCACGCCATGCCATTCCGCCCCACGGTCTCGCCGCCGCGGAGTCACCTAGTGCAG”: 9590 fluorescence intensity (a.u.); “CGGTTTTCTTCCCTCGGCCCATCTCTCTCTCTCGGCCCGGCGGAGTCACCTAGTGCAG”: 8420 fluorescence intensity (a.u.); “TGTTGTTGTAGATTTGGGATTTGGTGATATGGATTTGGAACGGAGTCACCTAGTGCAG”: 8590 fluorescence intensity (a.u.).
Next, “TATTTTATCTCACTGGCTATTTCCTATGATTATTTATTTCCGGAGTCACCTAGTGCAG”: 11400 fluorescence intensity (a.u.).
Next, “CTCATTATTTTAGCTTTTTTTTTTACAAAAGTACTTGTTCCGGAGTCACCTAGTGCAG”: 8300 fluorescence intensity (a.u.); “CTCTCCGGCGAGCTTTTTCACTCACTCACTGTGTTTCTCTCGGAGTCACCTAGTGCAG”: 9060 fluorescence intensity (a.u.); “GACTTTTCCAATGGCATTTCTGTTTCCTGCTCCCTAGTCGCGGAGTCACCTAGTGCAG”: 9000 fluorescence intensity (a.u.).
In the case of “GTGAGGCTTTTGGTTTTATGTTGTGATTTTGAGTGCCATTCGGAGTCACCTAGTGCAG”, the binding signal is 9370 fluorescence intensity (a.u.).
Next, “TCCACCTCCTAGCGAAATGCATGGTTGGCCAAACAACACACGGAGTCACCTAGTGCAG”: 8300 fluorescence intensity (a.u.); “CCTATGTTTTTCTTGCGGTCCAATCAAACGGCCATTCCTGCGGAGTCACCTAGTGCAG”: 9170 fluorescence intensity (a.u.).
As to “TCTATCTACCCCGCATTCCATCCATCCGCGCATTAATCCCCGGAGTCACCTAGTGCAG”, the binding signal is 15100 fluorescence intensity (a.u.).
With “GTAATTTGTAGGCTCAAACTGGCTTCGTTATTCTTGTTTTCGGAGTCACCTAGTGCAG”, the binding signal was 10900 fluorescence intensity (a.u.).
In the case of “TCTCGTCTTCTTCCTAATCCTTCCTGCATCGATTCTAACTCGGAGTCACCTAGTGCAG”, the binding signal was 9760 fluorescence intensity (a.u.).
Next, “CTACATTATATCGATCTGTACATTCTCTTGGTCATGCATACGGAGTCACCTAGTGCAG”: 9970 fluorescence intensity (a.u.).
Next, “TCACGGTTTCCATGCAAGTTATGAAATTAGTTTGTTCATTCGGAGTCACCTAGTGCAG”: 8192 fluorescence intensity (a.u.); “TGACATAGCCTTACGATCCCTTTTCTTCTCATCGTTGGACCGGAGTCACCTAGTGCAG”: 8280 fluorescence intensity (a.u.).
Next, “ACATGTTCATACTCATACATGTATATCCTCTTTGCCTAAACGGAGTCACCTAGTGCAG”: 11500 fluorescence intensity (a.u.); “GTTGTGCAACCTCTATTTTGTACATGTATTTCTGTTTAAACGGAGTCACCTAGTGCAG”: 8620 fluorescence intensity (a.u.); “CATCGGAGCGGGAGGTAAGGTAAAGGTGTTGACTATTGAACGGAGTCACCTAGTGCAG”: 8360 fluorescence intensity (a.u.).
Take “CATAGCCACTCGCTGCGCCTCCTCCTCATCGCCTCGCCGTCGGAGTCACCTAGTGCAG”: the binding signal is 8490 fluorescence intensity (a.u.).
Next, “GCACGATCTCACGATTCTGCCTCCTCATCTCTGTCGTTTCCGGAGTCACCTAGTGCAG”: 8480 fluorescence intensity (a.u.).
Next, “GGTTATCTGCGTCGTCGTCTGTCATCTCCTCCTCATCTTCCGGAGTCACCTAGTGCAG”: 10200 fluorescence intensity (a.u.); “GATAGTTGAGGGGTCGAGATTTTTGGTATTGCGGATTGGGCGGAGTCACCTAGTGCAG”: 10400 fluorescence intensity (a.u.).
Next, “TTTTCTATATTTAATACTCCATATATATATATTTTCAAACCGGAGTCACCTAGTGCAG”: 8700 fluorescence intensity (a.u.).
Consider “TCTTCTACTCCACTTGGTATATATGGTTGTTGCTTTGACTCGGAGTCACCTAGTGCAG”, for which the binding signal was 14600 fluorescence intensity (a.u.).
Next, “GGTTGGTTGGTGGAGGTGGATGGGAAACCCAAGAAAATACCGGAGTCACCTAGTGCAG”: 11200 fluorescence intensity (a.u.); “GCTTTTGAGTTGACAGCCACCGTTTTTAACCAACGCGCGACGGAGTCACCTAGTGCAG”: 8140 fluorescence intensity (a.u.); “CGCCTCATCTTTGGTTAATTGTGTTCCGGTTCAGGCTATTCGGAGTCACCTAGTGCAG”: 13900 fluorescence intensity (a.u.).
Consider “CATGTCCAACGTTTGACCATTTGCCTTATTTAAAATTTTTCGGAGTCACCTAGTGCAG”, for which the binding signal was 9250 fluorescence intensity (a.u.).
As to “AGTGCTTCAACATTGCTGACCTAGGGGTATTTCAGTCAAACGGAGTCACCTAGTGCAG”, the binding signal was 8690 fluorescence intensity (a.u.).
Consider “GTTTGACCAACTCATTTTTACTATCTAGATTTTTAGAATTCGGAGTCACCTAGTGCAG”, for which the binding signal was 8400 fluorescence intensity (a.u.).
For “AACCGCCTTTGCCGCTCGCTCCCGCCTCGAACCGACCTCGCGGAGTCACCTAGTGCAG”, the binding signal is 9710 fluorescence intensity (a.u.).
Next, “CATATATATCTTTTATTCTCCAGGTGTGTTGTATTCCTTCCGGAGTCACCTAGTGCAG”: 8580 fluorescence intensity (a.u.); “CCGTGGTTGGGGTGGTGGGCCGGGGTGTTACGTTAATGGGCGGAGTCACCTAGTGCAG”: 16500 fluorescence intensity (a.u.); “AGACCGTTGACTTGACTAGTCCACTCCTCTTTCACACGTACGGAGTCACCTAGTGCAG”: 12100 fluorescence intensity (a.u.).
Next, “ACCAGGCAACCATTATCTACTCTGACAGTTTCATATGGTCCGGAGTCACCTAGTGCAG”: 8320 fluorescence intensity (a.u.).
Next, “GGGATTTAATACACATTCTTCTTGGGAATTCTGGTTCGTGCGGAGTCACCTAGTGCAG”: 8340 fluorescence intensity (a.u.); “GCCCAACTCGTGGATGTCACCTCTCCTCCTCTCATCGCCTCGGAGTCACCTAGTGCAG”: 8240 fluorescence intensity (a.u.).
Turning to “CGTGTTTTATGCTTTTTAATGCAACTTTTTTTCCAAATGTCGGAGTCACCTAGTGCAG”, the binding signal is 8110 fluorescence intensity (a.u.).
As to “ATAACTTATGCTTCCTTGTACATATTTTGTCATTTTTCCTCGGAGTCACCTAGTGCAG”, the binding signal is 13200 fluorescence intensity (a.u.).
Next, “GTCCGTCCCTCATGCAGCGTCCGCTTTCCCCTAATCCGCTCGGAGTCACCTAGTGCAG”: 13000 fluorescence intensity (a.u.).
